Percent effect of library compounds

Sequences of proteins named here, by UniProt entry; tags and fusion partners are left off. Residues count along the entry.
UniProt I6X8D2, whole entry: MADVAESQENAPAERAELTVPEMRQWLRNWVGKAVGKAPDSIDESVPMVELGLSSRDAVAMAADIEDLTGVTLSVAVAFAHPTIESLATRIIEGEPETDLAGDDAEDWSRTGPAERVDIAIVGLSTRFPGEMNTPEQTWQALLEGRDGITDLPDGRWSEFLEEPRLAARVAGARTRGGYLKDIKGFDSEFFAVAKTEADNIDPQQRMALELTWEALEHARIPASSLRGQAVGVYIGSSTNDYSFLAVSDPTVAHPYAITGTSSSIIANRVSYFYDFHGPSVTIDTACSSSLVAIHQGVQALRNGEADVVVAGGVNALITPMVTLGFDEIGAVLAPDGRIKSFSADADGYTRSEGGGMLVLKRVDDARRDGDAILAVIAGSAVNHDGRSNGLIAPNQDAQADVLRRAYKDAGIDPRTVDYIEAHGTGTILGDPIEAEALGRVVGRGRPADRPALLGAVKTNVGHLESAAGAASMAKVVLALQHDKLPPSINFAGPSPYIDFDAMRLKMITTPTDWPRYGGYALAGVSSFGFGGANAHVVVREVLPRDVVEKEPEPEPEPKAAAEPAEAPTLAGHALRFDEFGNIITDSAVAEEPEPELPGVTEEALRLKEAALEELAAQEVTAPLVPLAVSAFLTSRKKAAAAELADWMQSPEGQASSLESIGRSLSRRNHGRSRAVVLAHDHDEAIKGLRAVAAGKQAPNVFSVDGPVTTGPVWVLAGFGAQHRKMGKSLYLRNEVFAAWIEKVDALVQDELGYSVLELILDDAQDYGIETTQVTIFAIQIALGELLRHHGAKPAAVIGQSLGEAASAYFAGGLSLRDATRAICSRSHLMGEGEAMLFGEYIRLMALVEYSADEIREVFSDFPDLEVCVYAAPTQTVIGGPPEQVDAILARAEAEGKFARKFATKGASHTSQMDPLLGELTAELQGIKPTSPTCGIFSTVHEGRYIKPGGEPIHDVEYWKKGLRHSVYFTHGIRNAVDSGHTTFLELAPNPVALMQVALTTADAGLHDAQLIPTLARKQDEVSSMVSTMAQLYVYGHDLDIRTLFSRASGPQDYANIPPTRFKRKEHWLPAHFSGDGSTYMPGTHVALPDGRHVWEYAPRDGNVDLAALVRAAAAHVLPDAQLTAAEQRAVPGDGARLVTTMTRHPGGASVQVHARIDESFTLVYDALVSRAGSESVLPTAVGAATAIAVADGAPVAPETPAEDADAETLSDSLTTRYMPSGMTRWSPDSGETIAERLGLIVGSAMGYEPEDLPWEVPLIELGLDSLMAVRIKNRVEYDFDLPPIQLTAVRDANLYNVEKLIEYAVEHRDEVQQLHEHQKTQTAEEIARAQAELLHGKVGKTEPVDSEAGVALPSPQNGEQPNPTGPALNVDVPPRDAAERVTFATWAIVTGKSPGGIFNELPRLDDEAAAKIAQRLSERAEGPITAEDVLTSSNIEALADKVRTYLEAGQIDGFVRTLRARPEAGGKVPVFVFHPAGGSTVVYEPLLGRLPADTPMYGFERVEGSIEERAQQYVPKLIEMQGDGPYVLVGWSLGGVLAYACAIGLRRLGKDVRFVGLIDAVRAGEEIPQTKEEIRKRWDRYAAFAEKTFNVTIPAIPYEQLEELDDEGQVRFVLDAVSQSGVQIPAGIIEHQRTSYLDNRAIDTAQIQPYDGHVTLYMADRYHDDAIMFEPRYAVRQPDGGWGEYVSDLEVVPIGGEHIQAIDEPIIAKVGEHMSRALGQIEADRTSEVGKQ
UniProt A4I591, 1-473: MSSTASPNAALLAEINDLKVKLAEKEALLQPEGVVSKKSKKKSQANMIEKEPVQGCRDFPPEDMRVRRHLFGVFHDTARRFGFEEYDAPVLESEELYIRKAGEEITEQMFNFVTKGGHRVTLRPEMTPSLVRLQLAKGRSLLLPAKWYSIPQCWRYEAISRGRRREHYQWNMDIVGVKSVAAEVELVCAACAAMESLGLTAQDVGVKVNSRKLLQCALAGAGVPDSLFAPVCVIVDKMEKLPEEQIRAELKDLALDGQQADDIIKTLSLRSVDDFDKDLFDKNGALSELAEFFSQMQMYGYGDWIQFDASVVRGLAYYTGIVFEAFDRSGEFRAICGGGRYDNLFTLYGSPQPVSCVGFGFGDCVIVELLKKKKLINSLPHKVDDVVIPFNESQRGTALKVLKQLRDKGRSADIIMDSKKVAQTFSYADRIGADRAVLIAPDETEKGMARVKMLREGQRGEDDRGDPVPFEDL
UniProt P9WPC5, whole entry: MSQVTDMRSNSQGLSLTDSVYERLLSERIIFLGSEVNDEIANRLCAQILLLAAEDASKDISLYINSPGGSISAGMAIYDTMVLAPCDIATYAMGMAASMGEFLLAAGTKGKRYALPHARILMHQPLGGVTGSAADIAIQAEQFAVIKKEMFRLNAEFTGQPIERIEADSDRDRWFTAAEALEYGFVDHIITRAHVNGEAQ
UniProt P9WPC3, whole entry partner: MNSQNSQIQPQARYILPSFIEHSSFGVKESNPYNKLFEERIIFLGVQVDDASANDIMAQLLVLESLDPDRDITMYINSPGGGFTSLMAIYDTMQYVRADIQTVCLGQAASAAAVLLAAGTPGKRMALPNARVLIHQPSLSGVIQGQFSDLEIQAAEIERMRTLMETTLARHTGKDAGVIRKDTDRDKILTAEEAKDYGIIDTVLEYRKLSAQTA
UniProt P9WNZ1, whole entry: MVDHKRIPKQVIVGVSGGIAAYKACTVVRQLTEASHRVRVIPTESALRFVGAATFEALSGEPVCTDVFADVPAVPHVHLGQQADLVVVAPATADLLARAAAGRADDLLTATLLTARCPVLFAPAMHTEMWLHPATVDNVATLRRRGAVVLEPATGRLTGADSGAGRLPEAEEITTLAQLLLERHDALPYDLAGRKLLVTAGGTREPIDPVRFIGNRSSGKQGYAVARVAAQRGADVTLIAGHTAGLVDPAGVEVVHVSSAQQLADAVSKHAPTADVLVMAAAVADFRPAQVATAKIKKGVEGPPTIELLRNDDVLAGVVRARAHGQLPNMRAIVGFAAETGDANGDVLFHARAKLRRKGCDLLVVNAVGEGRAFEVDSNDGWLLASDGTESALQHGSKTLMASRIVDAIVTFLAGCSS

Pks13 thioesterase: 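Polyketide synthase Pks13, Mycobacterium tuberculosis (UniProt I6X8D2). Enzyme assay of the thioesterase domain of polyketide synthase 13; the read-out is not stated. Concentration: 30 µM. Higher reads as stronger inhibition (inferred from which compounds were picked for retests). Of about 67,000 compounds tested this way, about 300 (0.46%) reached 50% or more in at least one test.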
LiHisRS: 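Histidine-tRNA ligase, Leishmania infantum (UniProt A4I591). Enzyme assay of histidyl-tRNA synthetase; the read-out is not stated. Concentration: 30 µM. The record gives no direction; compounds that gave an IC50 in retests scored well above the rest, so higher reads as stronger inhibition. The assay is labelled LdHisRS but filed under L. infantum. About 69,000 compounds were tested under these conditions; 0.6% (about 410) showed 50% or more at least once.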
Leishmania in macrophages: 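Cell assay of Leishmania donovani living inside macrophages; the read-out is not stated. Compounds at 30 µM. Direction is inferred from retests: higher values go with stronger inhibition. Size under these conditions: about 69,000 compounds, about 1,000 of them at 50% or above in at least one test.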
ClpP1P2: 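ClpP1P2, Mycobacterium tuberculosis (UniProt P9WPC5 and UniProt P9WPC3). Protease assay of ClpP1P2, read by the AMC dye that it sets free. Concentration: 50 µM. Higher reads as stronger inhibition, judged from the few compounds that gave an IC50. Most other retested compounds had strongly negative values. About 69,000 compounds were tested under these conditions; 0.015% (about 10) showed 50% or more at least once.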
Toxoplasma: 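Assay of Toxoplasma gondii numbers, read through their beta-galactosidase reporter with a colour substrate. Concentration: 10 µM. The record gives no direction; the compounds picked for IC50 retests had high values, so higher reads as fewer parasites. Of about 67,000 compounds tested this way, about 260 (0.38%) reached 50% or more in at least one test.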
CoaBC: 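Enzyme assay of CoaBC with a phosphate dye (Biomol Green) read at 650 nm. Target: Coenzyme A biosynthesis protein CoaBC, Mycobacterium tuberculosis (UniProt P9WNZ1). Tested at 30 µM. Direction is inferred from only a few compounds that gave an IC50; most scored high, so higher reads as stronger inhibition. Most strong results did not repeat in a second test. About 67,000 compounds were tested under these conditions; 0.06% (about 40) showed 50% or more at least once.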

Values are the deposited “Percent Effect”, in %. How 0% and 100% were set is not recorded. Most values in the screen are low, and negative values occur. This is an unselected part of the compounds tested. A dash means the value is not listed here; it may have been measured.

| compound | Pks13 thioesterase | LiHisRS | Leishmania in macrophages | ClpP1P2 | Toxoplasma | CoaBC |
|---|---|---|---|---|---|---|
| `CC1CN(C(=O)NCc2cnn(-c3ccc(F)cc3F)c2)CCO1` (centres undefined) | -11.63% | 19.18% | 6.334% | -4.654% | -7.04% | 8.765% |
| `COc1ccc(-c2noc(CN3CCc4cncnc4C3)n2)cc1` | 21.45% | 50.4% | 15.18% | 9.389% | -8.327% | -2.394% |
| `N#Cc1ncn(CCS(=O)(=O)c2ccc(Br)cc2)n1` | 26.11% | -9.091% | -3.798% | 4.368% | -1.063% | 2.848% |
| `CC(C)c1cc(C2CCN(C(=O)Cn3cncn3)CC2)[nH]n1` | -37.91% | 1.667% | -35.38% | 20.06% | 9.184% | 3.617% |
| `O[C@@H]1C[C@@H](c2nc(Cc3ccccc3)no2)N(Cc2ncc[nH]2)C1` | -2.471% | 22.22% | -10.76% | -10.48% | 2.085% | -0.6772% |
| `Cc1nc2sc(C(=O)N3CCNC(=O)C3)c(C)c2c(=O)[nH]1` | -18.58% | 14.61% | 38.5% | -2.265% | 9.675% | -6.25% |
| `O=C([C@H]1C[C@H]2OCC[C@H]2N(Cc2ccccc2F)C1)N1CCCCO1` | -6.401% | 26% | - | -2.056% | - | 3.75% |
| `CCC(Oc1ccc(N(C)S(C)(=O)=O)cc1)C(=O)NC` (centres undefined) | -20.2% | 1.493% | 3.132% | -2.786% | -13.8% | -8.434% |
| `Cc1ccc(OCC(=O)NCc2ccccc2F)nc1` | -23.41% | 13.33% | 25.43% | -6.2% | 4.094% | 1.505% |
| `CC1(C)CC1C(=O)NS(=O)(=O)Cc1cc(-c2ccccc2)no1` (centres undefined) | -35.24% | 11.11% | 20.92% | -5.468% | -11.51% | 0.7453% |
| `[H][C@]12CNC[C@@]1(C(=O)N1CCN(Cc3ncccc3C)CC1)CN(C)C2` | - | - | 2.056% | - | -38.8% | - |
| `Cc1nc(N(C)C)nc(N2CCC3(CC2)CNC(=O)O3)c1C` | -6.552% | 9.574% | -12.09% | -12.26% | 3.721% | 4.714% |

Once more, the final 2:

{"compound": "[H][C@]12CNC[C@@]1(C(=O)N1CCN(Cc3ncccc3C)CC1)CN(C)C2", "Leishmania in macrophages": 2.056, "Toxoplasma": -38.8}
{"compound": "Cc1nc(N(C)C)nc(N2CCC3(CC2)CNC(=O)O3)c1C", "Pks13 thioesterase": -6.552, "LiHisRS": 9.574, "Leishmania in macrophages": -12.09, "ClpP1P2": -12.26, "Toxoplasma": 3.721, "CoaBC": 4.714}

The values are deposited in ChEMBL (CHEMBL3988442, “University of Dundee, Small-Polar-MMV Screening Library” (2021)).